Laboratory results reported in patent publication US20050272077A1.
Results are given in words; binding and its absence hold for the method and conditions named. For some of these results: Binding seen in cells or lysates may run through a third protein. Some entries that bind do so weakly or less than the wild type. For some of these results: Where a sequence is shown, tags or fusion partners need not be part of it.

Amino acid sequences for entries named in this document (tags omitted). A change or cut given only in a name is not applied to a line headed by its entry. Chains listed by the source or under a name are the forms on record and can include a tag or linker.
JNK1 from UV-irradiated cells (P45983, form named): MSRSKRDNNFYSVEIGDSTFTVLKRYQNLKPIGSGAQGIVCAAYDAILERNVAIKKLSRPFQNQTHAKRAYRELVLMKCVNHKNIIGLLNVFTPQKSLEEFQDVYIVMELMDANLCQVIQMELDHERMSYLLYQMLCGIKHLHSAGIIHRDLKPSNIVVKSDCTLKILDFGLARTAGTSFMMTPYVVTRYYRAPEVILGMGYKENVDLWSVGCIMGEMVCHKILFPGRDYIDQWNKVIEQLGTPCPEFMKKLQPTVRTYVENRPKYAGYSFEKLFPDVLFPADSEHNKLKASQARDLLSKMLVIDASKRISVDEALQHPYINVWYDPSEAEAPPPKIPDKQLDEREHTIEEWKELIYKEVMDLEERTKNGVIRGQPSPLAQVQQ
Flag epitope-tagged JNK1 (P45983, form named): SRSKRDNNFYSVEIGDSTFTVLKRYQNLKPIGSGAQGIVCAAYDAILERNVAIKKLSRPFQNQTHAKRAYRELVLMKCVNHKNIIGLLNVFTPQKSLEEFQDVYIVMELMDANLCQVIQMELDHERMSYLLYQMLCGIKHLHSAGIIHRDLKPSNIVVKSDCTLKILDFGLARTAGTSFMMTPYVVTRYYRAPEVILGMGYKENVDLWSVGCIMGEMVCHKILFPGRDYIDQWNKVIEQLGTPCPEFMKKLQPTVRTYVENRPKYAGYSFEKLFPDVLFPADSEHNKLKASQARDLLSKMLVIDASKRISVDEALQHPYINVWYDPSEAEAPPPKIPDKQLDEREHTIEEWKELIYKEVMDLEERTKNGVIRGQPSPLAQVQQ

Tests used:
[1] = target: GST-ATF2 fusion protein (residues 1-109, activation domain) [GST: P08515]; experiment: solid-phase kinase assay of Example 8
[2] = target: GST-ATF2 fusion protein (residues 1-109, activation domain) [GST: P08515]; experiment: solid-phase kinase assay: GST-ATF2 on GSH-agarose, washed, bound JNK1 detected with [γ-32P]ATP
[3] = target: T1, GST-ATF2 fusion protein (residues 1-349) (UniProt P15336); experiment: as above
T1 sequence (looked up): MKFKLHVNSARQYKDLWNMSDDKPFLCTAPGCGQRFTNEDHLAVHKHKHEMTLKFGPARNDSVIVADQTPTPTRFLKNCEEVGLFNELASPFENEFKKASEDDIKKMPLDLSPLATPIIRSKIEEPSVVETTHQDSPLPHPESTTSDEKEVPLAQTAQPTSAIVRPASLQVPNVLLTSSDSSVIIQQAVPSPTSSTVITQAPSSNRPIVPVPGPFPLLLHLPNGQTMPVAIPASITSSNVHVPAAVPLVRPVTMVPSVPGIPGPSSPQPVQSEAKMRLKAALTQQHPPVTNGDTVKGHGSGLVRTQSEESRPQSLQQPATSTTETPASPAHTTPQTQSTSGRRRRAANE

[4] = target: T2, GST-ATF2 fusion protein (residues 1-505) (UniProt P15336); experiment: as above
T2 sequence (looked up): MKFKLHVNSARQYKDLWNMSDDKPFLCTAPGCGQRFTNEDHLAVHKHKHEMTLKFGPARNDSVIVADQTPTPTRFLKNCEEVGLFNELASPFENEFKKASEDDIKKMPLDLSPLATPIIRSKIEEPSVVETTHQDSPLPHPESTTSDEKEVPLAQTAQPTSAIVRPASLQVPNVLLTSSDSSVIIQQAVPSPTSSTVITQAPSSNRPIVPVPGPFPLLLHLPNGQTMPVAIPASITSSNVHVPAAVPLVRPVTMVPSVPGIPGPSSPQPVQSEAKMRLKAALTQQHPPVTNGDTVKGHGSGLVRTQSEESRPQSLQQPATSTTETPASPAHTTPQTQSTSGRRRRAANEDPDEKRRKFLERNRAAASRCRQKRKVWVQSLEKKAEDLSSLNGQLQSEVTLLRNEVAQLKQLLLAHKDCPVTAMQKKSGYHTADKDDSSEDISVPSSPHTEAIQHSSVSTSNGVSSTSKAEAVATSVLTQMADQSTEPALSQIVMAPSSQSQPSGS

[5] = target: T3, GST-ATF2 fusion protein (residues 20-109) (UniProt P15336); experiment: as above
T3 sequence (looked up): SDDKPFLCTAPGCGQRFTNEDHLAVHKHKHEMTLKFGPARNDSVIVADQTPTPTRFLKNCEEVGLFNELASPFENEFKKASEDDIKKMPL

[6] = target: T4, GST-ATF2 fusion protein (residues 40-109) (UniProt P15336); experiment: as above
T4 sequence (looked up): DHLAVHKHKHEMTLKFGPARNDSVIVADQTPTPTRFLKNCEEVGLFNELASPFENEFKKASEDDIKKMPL

[7] = target: GST-ATF2 fusion protein (residues 1-109, activation domain) [GST: P08515]; experiment: GST pull-down from cell extracts on GSH agarose, Western blot with M2

binding [1] | binding [2] | binding [3] | binding [4] | binding [5] | binding [6] | binding [7] | Substance
binds | binds | binds | binds | binds | binds |  | JNK1 from UV-irradiated cells (from UniProt P45983 1-384) (enzyme)
 |  |  |  |  |  | binds | Flag epitope-tagged JNK1 (from UniProt P45983 2-384) (enzyme)
